Measured values as given in article PMC8213727.
These are yes or no findings as the source states them, for the method shown. In cells and extracts the contact can be indirect. Some entries that bind do so weakly or less than the wild type. For part of these data: Where a sequence is shown, tags or fusion partners need not be part of it. Values belong to the molecule of their own block, whether it stands above or below them.

Tests used:
[1] = target: T1, Myc-GFP-tagged Fl(2)d middle region and C-terminus (residues 125-536) (Drosophila melanogaster) (UniProt Q9Y091); assay: co-IP; S2R+ cells co-transfected with a Myc-GFP-tagged bait and an HA-tagged prey; NET buffer (50 mM Tris-HCl pH 7.5, 150 mM NaCl, 0.1% Triton, 1 mM EDTA, 10% glycerol), RNase A; GFP-magnetic beads, 4 °C; blots with anti-Myc or anti-GFP and anti-HA; some experiments after control (LacZ), vir or Hakai knock-down
T1 sequence: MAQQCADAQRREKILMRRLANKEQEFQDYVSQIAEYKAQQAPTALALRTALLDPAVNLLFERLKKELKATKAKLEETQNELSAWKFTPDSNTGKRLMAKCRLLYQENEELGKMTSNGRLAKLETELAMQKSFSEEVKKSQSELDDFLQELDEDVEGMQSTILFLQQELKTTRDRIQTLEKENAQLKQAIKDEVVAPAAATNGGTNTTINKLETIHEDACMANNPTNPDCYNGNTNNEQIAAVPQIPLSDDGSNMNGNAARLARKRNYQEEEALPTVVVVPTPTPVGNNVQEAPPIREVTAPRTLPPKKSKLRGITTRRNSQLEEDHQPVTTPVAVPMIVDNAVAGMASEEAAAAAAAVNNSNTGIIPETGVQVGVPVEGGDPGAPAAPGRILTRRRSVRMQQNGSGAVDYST

[2] = target: T2, Myc-GFP-tagged Fl(2)d (full length) (Drosophila melanogaster) (UniProt Q9Y091); assay: as above
T2 sequence: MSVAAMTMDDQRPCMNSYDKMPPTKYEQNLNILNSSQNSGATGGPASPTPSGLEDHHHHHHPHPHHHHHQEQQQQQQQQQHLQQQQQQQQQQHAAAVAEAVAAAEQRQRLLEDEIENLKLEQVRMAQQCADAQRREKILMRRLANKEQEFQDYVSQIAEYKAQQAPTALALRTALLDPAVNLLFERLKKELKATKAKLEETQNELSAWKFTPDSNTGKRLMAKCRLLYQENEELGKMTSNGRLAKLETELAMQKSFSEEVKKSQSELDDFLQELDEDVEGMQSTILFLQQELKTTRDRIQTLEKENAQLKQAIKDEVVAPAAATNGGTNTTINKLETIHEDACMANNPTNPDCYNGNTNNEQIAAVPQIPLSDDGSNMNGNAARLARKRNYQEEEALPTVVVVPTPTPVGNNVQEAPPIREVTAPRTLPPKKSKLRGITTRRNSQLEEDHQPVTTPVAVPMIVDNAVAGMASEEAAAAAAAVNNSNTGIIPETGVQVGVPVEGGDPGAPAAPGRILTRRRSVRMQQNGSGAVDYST

[3] = target: T3, human VIRMA N-terminal domain (residues 1-130) (human) (UniProt Q69YN4); assay: co-IP; HEK293T cells co-transfected with His6-FLAG3-eGFP- and His6-HA3-mCherry-tagged human constructs; lysis buffer 20 mM Tris-HCl pH 7.5, 150 mM KCl, 1 mM EDTA, 0.1% Tween20; RNase A; anti-FLAG M2 magnetic beads, 1 h; gels scanned for GFP and mCherry
T3 sequence: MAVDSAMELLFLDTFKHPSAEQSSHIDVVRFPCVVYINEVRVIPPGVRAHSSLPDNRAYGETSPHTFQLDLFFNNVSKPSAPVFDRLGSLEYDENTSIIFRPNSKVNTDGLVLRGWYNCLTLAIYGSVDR

human VIRMA (human) = human VIRMA (human) (UniProt Q69YN4); assay: as above
[4] = target: T4, Myc-GFP-tagged Virilizer C-terminal region (residues 1501-1854) (Drosophila melanogaster) (UniProt Q9W1R5); assay: co-IP; S2R+ cells co-transfected with a Myc-GFP-tagged bait and an HA-tagged prey; NET buffer (50 mM Tris-HCl pH 7.5, 150 mM NaCl, 0.1% Triton, 1 mM EDTA, 10% glycerol), RNase A; GFP-magnetic beads, 4 °C; blots with anti-Myc or anti-GFP and anti-HA; some experiments after control (LacZ), vir or Hakai knock-down
T4 sequence: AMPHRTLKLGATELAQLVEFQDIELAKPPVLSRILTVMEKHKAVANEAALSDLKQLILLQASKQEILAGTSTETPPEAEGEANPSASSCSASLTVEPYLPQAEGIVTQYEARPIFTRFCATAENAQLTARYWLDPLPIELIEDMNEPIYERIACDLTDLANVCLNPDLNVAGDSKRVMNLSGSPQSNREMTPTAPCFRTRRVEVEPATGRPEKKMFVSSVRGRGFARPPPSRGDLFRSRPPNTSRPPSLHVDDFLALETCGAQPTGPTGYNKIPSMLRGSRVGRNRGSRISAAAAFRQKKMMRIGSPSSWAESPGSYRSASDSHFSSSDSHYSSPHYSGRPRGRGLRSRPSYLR

binding [1]: binds | binding [2]: binds
Molecule: HA-tagged Virilizer (from UniProt Q9W1R5 1-1854)

binding [3]: binds
B1: human HAKAI (protein, UniProt Q75N03 1-491)
chain: MDHTDNELQGTNSSGSLGGLDVRRRIPIKLISKQANKAKPAPRTQRTINRMPAKAPPGDEEGFDYNEEERYDCKGGELFANQRRFPGHLFWDFQINILGEKDDTPVHFCDKCGLPIKIYGRMIPCKHVFCYDCAILHEKKGDKMCPGCSDPVQRIEQCTRGSLFMCSIVQGCKRTYLSQRDLQAHINHRHMRAGKPVTRASLENVHPPIAPPPTEIPERFIMPPDKHHMSHIPPKQHIMMPPPPLQHVPHEHYNQPHEDIRAPPAELSMAPPPPRSVSQETFRISTRKHSNLITVPIQDDSNSGAREPPPPAPAPAHHHPEYQGQPVVSHPHHIMPPQQHYAPPPPPPPPISHPMPHPPQAAGTPHLVYSQAPPPPMTSAPPPITPPPGHIIAQMPPYMNHPPPGPPPPQHGGPPVTAPPPHHYNPNSLPQFTEDQGTLSPPFTQPGGMSPGIWPAPRGPPPPPRLQGPPSQTPLPGPHHPDQTRYRPYYQ

binding [2]: binds
B2: Nito (construct of the experiments of Supplementary Figs. 4 and 5) (protein, UniProt Q7KMJ6 1-793)
chain: MSSHRDGAGADRITIKIHNMKRSASRSPGPASRSSLSRNSRSMGRGYDNGSGVPGDSPERLSPERMRRRLDRSPSRYGSPHREPYMRGPPPAERPAGYKVLCVSALPPKAPDDFIEETLYREYKKFGDFSVRLAHDLDERVAYVCFRTPEDAREAKHHKPRLIIYDKMAIVEPVYKSTTRPEYRPRGHSMSPPDYERYHYSRSPMGQGVPLDHRRPPIDPYDRYGPPHMHPHAVHPRDYRPLHHDYPHPPRGPPLHRGGHPHHLHGHAPPHQYAPMRPLAPRPHAPYEKPESKKDKFPNYLHHVQPEDDPLSTRTLFAGNLEVTIADDELRRIFGKYGVVDDIDIKRPPPGTGNAFAFVRYQNLDMAHRAKIELSGQYIGKFQCKIGYGKVTPATRMWIGGLGAWTSVTQLEREFDRFGAIKKIEYQKGEPYAYIQYETVEAATAAVKEMRGFPLGGPERRLRTDFAELPGATPAAPFKSSKPPYDESALEYRRPEYDPYYEESAAYAPRGGYSPYPPRGGYRGRGGYRGRGRGMYHYHNDVHRPPHPGSLAGSSSSVPPPGGVEDEWRRPPGESYDRGARSSSREPGVERSRSRSPLKRARSPGSDSDTSTRRNDALASASTVPDVARKCSTVWTGALILKSSLFPAKFHLTDGDTDIVESLMRDEEGKHNLRITQRLRLDPPKLDDVQKRIASSSSHAIFMGLAGSTNDTNCDDASVQTRPLRNLVSYLKQKEAAGVISLLNKETEATGVLYAFPPCDFSTELLKRTCHSLTEEGLKEDHLVIVVVRGGTA

binding (human VIRMA (human)): binds
B3: human WTAP predicted structured region (residues 1-249) (domain or fragment, UniProt Q15007 1-249)
chain: MTNEEPLPKKVRLSETDFKVMARDELILRWKQYEAYVQALEGKYTDLNSNDVTGLRESEEKLKQQQQESARRENILVMRLATKEQEMQECTTQIQYLKQVQQPSVAQLRSTMVDPAINLFFLKMKGELEQTKDKLEQAQNELSAWKFTPDSQTGKKLMAKCRMLIQENQELGRQLSQGRIAQLEAELALQKKYSEELKSSQDELNDFIIQLDEEVEGMQSTILVLQQQLKETRQQLAQYQQQQSQASAP

binding [4]: binds
B4: HA-tagged Fl(2)d (pAc5.1B-lambdaN-HA vector) (protein, UniProt Q9Y091 1-536)
chain: MSVAAMTMDDQRPCMNSYDKMPPTKYEQNLNILNSSQNSGATGGPASPTPSGLEDHHHHHHPHPHHHHHQEQQQQQQQQQHLQQQQQQQQQQHAAAVAEAVAAAEQRQRLLEDEIENLKLEQVRMAQQCADAQRREKILMRRLANKEQEFQDYVSQIAEYKAQQAPTALALRTALLDPAVNLLFERLKKELKATKAKLEETQNELSAWKFTPDSNTGKRLMAKCRLLYQENEELGKMTSNGRLAKLETELAMQKSFSEEVKKSQSELDDFLQELDEDVEGMQSTILFLQQELKTTRDRIQTLEKENAQLKQAIKDEVVAPAAATNGGTNTTINKLETIHEDACMANNPTNPDCYNGNTNNEQIAAVPQIPLSDDGSNMNGNAARLARKRNYQEEEALPTVVVVPTPTPVGNNVQEAPPIREVTAPRTLPPKKSKLRGITTRRNSQLEEDHQPVTTPVAVPMIVDNAVAGMASEEAAAAAAAVNNSNTGIIPETGVQVGVPVEGGDPGAPAAPGRILTRRRSVRMQQNGSGAVDYST
